The text below walks through data of publication PMC12152899, “Disulfide-mediated tetramerization of TRAP1 fosters its antioxidant and pro-neoplastic activities” (Redox Biology, 2025).

Positions count from the first letter of the chain named. Names may count otherwise. Results are given in words; binding and its absence hold for the method and conditions named. Some binding calls cover weakened binding; strength is not graded here. For some assays here: Where a sequence is shown, tags or fusion partners need not be part of it.

Experiment [1] concerns the target endogenous TRAP1 of mouse malignant peripheral nerve sheath tumor (sMPNST) cells (mouse (endogenous in sMPNST)) (UniProt Q9CQN1). Briefly: non-reducing SDS-PAGE and Western blot; sMPNST cells, endogenous TRAP1; mitochondrial extracts, basal or H2O2; cell extracts after hypoxia 2 h and reoxygenation 10 min.
Experiment [2] concerns the target WT HA-linked TRAP1 expressed in TRAP1-silenced (shTRAP1) HeLa cells (human) (UniProt Q12931). Briefly: non-reducing SDS-PAGE and Western blot; TRAP1-silenced HeLa cells expressing HA-linked TRAP1; 100 μM H2O2, 10 μM cisplatin, 100 μM BSO or 10 mM NAC (24 h), co-expression of SOD2 or M-CAT; anti-TRAP1 blot of lysates. Background: In western blotting, separated proteins are transferred to a membrane and probed.

The target in experiment [3] is C261S/C573R HA-linked TRAP1 expressed in TRAP1-silenced (shTRAP1) HeLa cells (human) (UniProt Q12931). Described as above.
The target of experiment [4] is HA-TRAP1 wild-type (human) expressed in TRAP1-KO sMPNST cells (human) (UniProt Q12931). Kind of experiment: non-reducing SDS-PAGE and Western blot; mitochondrial extracts of TRAP1-KO sMPNST cells reconstituted with human TRAP1; basal, 1 mM diamide or 100 μM H2O2 for 30 min.
Experiment [5] concerns the target recombinant human TRAP1 C501S (human) (UniProt Q12931). Briefly: non-reducing SDS-PAGE; as a1, H2O2-treated recombinant TRAP1 with DTT added (10 mM in the legend, 50 mM in the methods); both purified.
Experiment [6] addresses recombinant human TRAP1 C261S (human) (UniProt Q12931). Described as above.
In experiment [7] the target is recombinant human TRAP1 C261S/C573R double mutant (human) (UniProt Q12931). Briefly: SEC; Superdex 200 HR 10/30, 20 mM TRIS, 150 mM NaCl, pH 7; recombinant TRAP1 incubated with 100 μM H2O2; additional peak beside the dimer; dimers to tetramer; both purified. For orientation: SEC sorts molecules by how far they enter the pores of the column.
Experiment [8] has the same target. Briefly: non-reducing SDS-PAGE; purified recombinant TRAP1, DTT removed, 150 mM NaCl, 50 mM TRIS, pH 7.5, 37 °C, 100 μM H2O2 for 30 min (1 nM to 100 μM in Fig. 1B); disulfide-linked band above 170 kDa; Coomassie or stain-free; both purified.
Experiment [9] deals with endogenous TRAP1 of human A375 melanoma cells (human (endogenous in A375)) (UniProt Q12931). Briefly: non-reducing SDS-PAGE and Western blot; as a5, with DTT to reduce disulfides.
Experiment [10] shares this target. Kind of experiment: non-reducing SDS-PAGE and Western blot; mitochondrial extracts of A375 cells treated with 100 μM H2O2 (30 min), 1 mM diamide (30 min) or 10 μM oligomycin (4 h), alone or combined; anti-TRAP1 blot; high-molecular-weight form.
Experiment [11] deals with recombinant human TRAP1 C501S/C527A double mutant (human) (UniProt Q12931). Briefly: non-reducing SDS-PAGE; as a1, H2O2-treated recombinant TRAP1 with DTT added (10 mM in the legend, 50 mM in the methods); both purified.
In experiment [12] the target is recombinant human TRAP1 C527A (human) (UniProt Q12931). The experiment is described as above.
Experiment [13] addresses recombinant human TRAP1 C573R (human) (UniProt Q12931). Described as above.
Experiment [14] has as its target HA-TRAP1 C261S/C573R mutant (human) expressed in TRAP1-KO sMPNST cells (human) (UniProt Q12931). Kind of experiment: non-reducing SDS-PAGE and Western blot; mitochondrial extracts of TRAP1-KO sMPNST cells reconstituted with human TRAP1; basal, 1 mM diamide or 100 μM H2O2 for 30 min.

B1: endogenous TRAP1 of mouse malignant peripheral nerve sheath tumor (sMPNST) cells (protein, UniProt Q9CQN1 61-706)
chain: STQAAEDKEEESLHSIISNTEAVRGSVSKHEFQAETKKLLDIVARSLYSEKEVFIRELISNASDALEKLRHKLVCEGQVLPEMEIHLQTDAKKGTITIQDTGIGMTQEELVSNLGTIARSGSKAFLEALQNQAETSSKIIGQFGVGFYSAFMVADKVEVYSRSAAPESPGYQWLSDGSGVFEIAEASGVRPGTKIIIHLKSDCKDFASESRVQDVVTKYSNFVSFPLYLNGKRINTLQAIWMMDPKDISEFQHEEFYRYIAQAYDKPRFTLHYKTDAPLNIRSIFYVPEMKPSMFDVSRELGSSVALYSRKVLIQTKAADILPKWLRFIRGVVDSEDIPLNLSRELLQESALIRKLRDVLQQRLIKFFIDQSKKDAEKYAKFFEDYGLFMREGIVTTAEQDIKEDIAKLLRYESSALPAGQLTSLPDYASRMQAGTRNIYYLCAPNRHLAEHSPYYEAMKQKHTEVLFCYEQFDELTLLHLREFDKKKLISVETDIVVDHYKEEKFEDTSPADERLSEKETEDLMAWMRNALGSRVTNVKVTFRLDTHPAMVTVLEMGAARHFLRMQQLAKTQEERAQLLQPTLEINPRHTLIKKLCQLRESEPELAQLLVDQIYENAMIAAGLVDDPRAMVGRLNDLLVKVLEKH
For B1, in [1], the binding entry is given as “binds”.

B2: WT HA-linked TRAP1 expressed in TRAP1-silenced (shTRAP1) HeLa cells (protein, UniProt Q12931 60-704)
chain: STQTAEDKEEPLHSIISSTESVQGSTSKHEFQAETKKLLDIVARSLYSEKEVFIRELISNASDALEKLRHKLVSDGQALPEMEIHLQTNAEKGTITIQDTGIGMTQEELVSNLGTIARSGSKAFLDALQNQAEASSKIIGQFGVGFYSAFMVADRVEVYSRSAAPGSLGYQWLSDGSGVFEIAEASGVRTGTKIIIHLKSDCKEFSSEARVRDVVTKYSNFVSFPLYLNGRRMNTLQAIWMMDPKDVREWQHEEFYRYVAQAHDKPRYTLHYKTDAPLNIRSIFYVPDMKPSMFDVSRELGSSVALYSRKVLIQTKATDILPKWLRFIRGVVDSEDIPLNLSRELLQESALIRKLRDVLQQRLIKFFIDQSKKDAEKYAKFFEDYGLFMREGIVTATEQEVKEDIAKLLRYESSALPSGQLTSLSEYASRMRAGTRNIYYLCAPNRHLAEHSPYYEAMKKKDTEVLFCFEQFDELTLLHLREFDKKKLISVETDIVVDHYKEEKFEDRSPAAECLSEKETEELMAWMRNVLGSRVTNVKVTLRLDTHPAMVTVLEMGAARHFLRMQQLAKTQEERAQLLQPTLEINPRHALIKKLNQLRASEPGLAQLLVDQIYENAMIAAGLVDDPRAMVGRLNELLVKALERH
For the molecule B2, the binding result in experiment [2] is “binds”.

B3: C261S/C573R HA-linked TRAP1 expressed in TRAP1-silenced (shTRAP1) HeLa cells (protein, UniProt Q12931 60-704)
chain: B2 chain with C202S, C514R
As for B3, in [3], the binding entry is recorded as “no binding”.

B4: HA-TRAP1 wild-type (human) expressed in TRAP1-KO sMPNST cells (protein, UniProt Q12931 60-704)
chain: B2 chain
On to B4, for which, in experiment [4], the binding entry is on record as “binds”.

B5: recombinant human TRAP1 C501S (natural protein, UniProt Q12931 60-704, looked up)
chain: B2 chain with C442S
notes: Cloned in pET-26b(+); same construct as m1 with the mutation; source: E. coli BL21(DE3), purified (Ni-NTA)
B5: the binding entry in experiment [5] was “no binding (condition: with DTT)”.

B6: recombinant human TRAP1 C261S (natural protein, UniProt Q12931 60-704, looked up)
chain: B2 chain with C202S
notes: as for B5
Consider B6, for which, in experiment [6], the binding entry is “no binding (condition: with DTT)”.

B7: recombinant human TRAP1 C261S/C573R double mutant (protein, UniProt Q12931 60-704)
chain: B2 chain with C202S, C514R
On to B7, for which the binding entry in [7] and in experiment [8] was “no binding” in each case.

B8: endogenous TRAP1 of human A375 melanoma cells (protein, UniProt Q12931 60-704)
chain: B2 chain
On to B8, for which the results for the binding entry in experiment [9] and in experiment [10] were “no binding (condition: with DTT)” and “binds”, respectively.

B9: recombinant human TRAP1 C501S/C527A double mutant (natural protein, UniProt Q12931 60-704, looked up)
chain: B2 chain with C442S, C468A
notes: Cloned in pET-26b(+); same construct as m1 with the mutations; source: E. coli BL21(DE3), purified (Ni-NTA)
In the case of B9, the binding result in experiment [11] is reported as “no binding (condition: with DTT)”.

B10: recombinant human TRAP1 C527A (natural protein, UniProt Q12931 60-704, looked up)
chain: B2 chain with C468A
notes: as for B5
Consider B10, for which, in [12], the binding result is reported as “no binding (condition: with DTT)”.

B11: recombinant human TRAP1 C573R (natural protein, UniProt Q12931 60-704, looked up)
chain: B2 chain with C514R
notes: as for B5
For the molecule B11, in experiment [13], the binding entry was “no binding (condition: with DTT)”.

B12: HA-TRAP1 C261S/C573R mutant (human) expressed in TRAP1-KO sMPNST cells (protein, UniProt Q12931 60-704)
chain: B2 chain with C202S, C514R
For B12, the binding entry in [14] is listed as “no binding”.
